Data taken from PubChem BioAssay AID504467 (National Center for Advancing Translational Sciences (NCATS), 2011).
Hit rate of the full screen: of about 330,000 compounds, about 7,700 (2.3%) were called active. Inconclusive means that the source gave no clear call. Such entries were picked first, then a sample of the others. Calls follow the shape of the dose curve; as a rule, active = well fitted inhibition curve with a large enough effect; inconclusive = small, poorly fitted or top-dose-only effect, or effect the other way; inactive = flat fitted curve, though single readings scatter. Potencies beside an inconclusive call are fits to weak or partial responses and may not hold up.

experiment: qHTS screen for small molecules that inhibit ELG1-dependent DNA repair in human embryonic kidney (HEK293T) cells expressing luciferase-tagged ELG1; settings: HEK293T ELG1-luciferase reporter, luminescence, 16 h, DNA damage induced by 5-fluorouridine; series mostly up to 46.1 µM; also: nearly all actives have a fitted effect of over 55% in size
Outline: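 Quantitative HTS, concentration-response format. 2,000 cells/well co-treated with 5-fluorouridine and compound, 16 hr in 5% CO2 at 37 °C; ONE-Glo luminescence read after 30 min.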
Potency is read from the fitted curve at half-maximal effect.

SMILES	Potency
O=C(NCCN1CCOCC1)c1cc([N+](=O)[O-])cc([N+](=O)[O-])c1	inactive
CCOC(=O)Cn1c(CN2CCN(c3cccc(Cl)c3)CC2)nc2c1c(=O)[nH]c(=O)n2C	inconclusive: 23.1 µM [inhibitor, single point]
COc1ccccc1NS(=O)(=O)c1ccc(C(=O)NCc2ccc(S(N)(=O)=O)cc2)cc1	inactive
O=C(NCC(O)c1ccccc1)Nc1cccs1 (stereo unspecified)	inconclusive: 20.6 µM [activator, partial curve]
CCn1ccnc1CN(C)Cc1c(C(=O)N2C[C@@H](C)O[C@@H](C)C2)nc2ccc(Cl)cn12	inactive
O=C(Oc1ccc(=O)n(-c2ccccc2)n1)c1ccc(Cl)cc1	inconclusive: 16.4 µM [activator, partial curve, poor fit]
CC(C)Oc1ccc(C(=O)NC(=S)N2CCOCC2)cc1	inconclusive: 18.4 µM [activator, partial curve]
CCC(C(=O)NC(CC(=O)O)c1ccc(Cl)cc1)c1ccccc1 (stereo unspecified)	inactive
O=C(NC1CCCC1)C(c1ccccn1)N(C(=O)c1csnn1)c1ccccc1Cl (stereo unspecified)	inactive
Nc1cccc(S(=O)(=O)Nc2ccc(Br)cc2)c1	inconclusive: 23.1 µM [inhibitor, partial curve, poor fit]
Cc1ccc(C(=O)NCCc2nc3ccccc3[nH]2)cc1[N+](=O)[O-]	inconclusive: 29.1 µM [inhibitor, single point]
Clc1cccc(OCCN2CCN(CCOc3cccc(Cl)c3)CC2)c1	inconclusive: 25.9 µM [inhibitor, single point]
COc1ccccc1CNC(=O)c1oc2ccc(S(=O)(=O)N3CCCC3)cc2c1C	inconclusive: 16.4 µM [inhibitor, single point]
COc1ccc(CNc2ncc(-c3ccc(F)cc3)n2C)cc1OC	inactive
COCCCNC(=O)Nc1ccc(Br)cc1Cl	inconclusive: 23.1 µM [activator, partial curve]
Cc1nc(Cl)sc1C(=O)Nc1ccc(Cl)cc1	inconclusive: 16.4 µM [activator, single point]
O=C1CCNc2ccc(-c3ccccc3)cc21	inconclusive: 13 µM [activator, partial curve]
COc1cc(-c2noc(C)c2-c2ccc3[nH]ccc3c2)cc(OC)c1OC	inconclusive: 1.3 µM [inhibitor, single point]
Cc1ccccc1NC(=S)NC(=O)/C=C/c1ccco1	inactive
CCc1noc(C)c1C(=O)Nc1nnc(C(CC)CC)s1	inactive
CNc1ccccc1	inactive

2 compounds picked at random from the list so far:
SMILES	Potency
COc1cc(-c2noc(C)c2-c2ccc3[nH]ccc3c2)cc(OC)c1OC	inconclusive: 1.3 µM [inhibitor, single point]
O=C(Oc1ccc(=O)n(-c2ccccc2)n1)c1ccc(Cl)cc1	inconclusive: 16.4 µM [activator, partial curve, poor fit]
